Data taken from article PMC9393630.

How the values were obtained:
[1] = target: T1, AtnCBP, BiFC fusion (split YFP) (Arabidopsis thaliana) (UniProt Q9FK59); assay: split reporter; nYFP and cYFP fusions agro-infiltrated into N. benthamiana leaves (final OD600 = 0.2); YFP observed at 48 h post-infiltration by confocal microscopy
T1 sequence: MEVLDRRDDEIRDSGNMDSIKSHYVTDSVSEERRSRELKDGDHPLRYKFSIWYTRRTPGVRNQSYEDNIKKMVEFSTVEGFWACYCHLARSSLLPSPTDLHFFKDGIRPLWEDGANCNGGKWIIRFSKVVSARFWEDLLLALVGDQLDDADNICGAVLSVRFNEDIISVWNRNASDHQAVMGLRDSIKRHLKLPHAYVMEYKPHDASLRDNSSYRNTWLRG

[2] = target: T2, AtnCBP (nCBP of Arabidopsis thaliana), two-hybrid fusion in pGBKT7 (Arabidopsis thaliana) (UniProt Q9FK59); assay: two-hybrid; nCBP in pGBKT7, viral proteins in pGADT7, co-transformed into yeast strain AH109; medium lacking tryptophan, leucine, adenine and histidine with X-alpha-GAL (20 mg/L), blue plaques
T2 sequence: T1 sequence

Row | Substance | binding [1] | binding [2]
1 | Potato virus M coat protein, BiFC fusion (split YFP) | binds | –
2 | Potato virus M coat protein, two-hybrid fusion | – | binds
3 | Potato virus X TGB2, two-hybrid fusion in pGADT7 | – | binds
4 | Potato virus X TGB3, two-hybrid fusion in pGADT7 | – | binds
5 | Potato virus X coat protein, two-hybrid fusion in pGADT7 | – | binds

These are yes or no findings as the source states them, for the method shown. Binding can be weak; no strength is given. Sequences can lack the tags named with a protein. For some assays here: Binding seen in cells or lysates may run through a third protein.
